Assay results as given in patent US20110230650A1 (NORTHWESTERN UNIVERSITY, published 2011).
No constants are given. Whether binding was seen depends on the method and setting. In cells and extracts the contact can be indirect. Some entries that bind do so weakly or less than the wild type. Where a sequence is shown, tags or fusion partners need not be part of it.

T1: KcsA potassium channel (with histidine-tag) (UniProt P0A334)
T1 sequence (looked up): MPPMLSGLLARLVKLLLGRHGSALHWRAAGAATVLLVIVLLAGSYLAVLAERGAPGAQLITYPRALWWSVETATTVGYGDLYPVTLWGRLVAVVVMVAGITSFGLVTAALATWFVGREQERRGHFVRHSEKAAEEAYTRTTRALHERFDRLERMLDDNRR


Legend:
[1] = target: T1, KcsA potassium channel (with histidine-tag); assay: metal-affinity co-purification with His-tagged KcsA without detergent (data not shown)
[2] = target: T1, KcsA potassium channel (with histidine-tag); assay: separate expression in E. coli, cell pastes mixed, metal-affinity co-purification of the LP5-KcsA complex without detergent, SDS-PAGE
[3] = target: T1, KcsA potassium channel (with histidine-tag); assay: separate expression in E. coli and mixing, metal-affinity co-purification without detergent, SDS-PAGE

| binding [1] | binding [2] | binding [3] | Binder |
| --- | --- | --- | --- |
| binds | – | – | LP6 (designed binder) FQKKWQEEMELYRQKVEPLRAELQEGARQKLHELQEKLSPLGEEMRDRARAHVDAFQKKWQEEMELYRQKVEPLRAELQEGARQKLHELQEKLSPLGEEMRDRARAHVDAFQKKWQEEMELYRQKVEPLRAELQEGARQKLHELQEKLSPLGEEMRDRARAHVDAFQKKWQEEMELYRQKVEPLRAELQEGARQKLHELQEKLSPLGEEMRDRARAHVDAFQKKWQEEMELYRQKVEPLRAELQEGARQKLHELQEKLSPLGEEMRDRARAHVDAFQKKWQEEMELYRQKVEPLRAELQEGARQKLHELQEKLSPLGEEMRDRARAHVDA |
| – | binds | binds | LP5 (without histidine-tag) (designed binder) FQKKWQEEMELYRQKVEPLRAELQEGARQKLHELQEKLSPLGEEMRDRARAHVDAFQKKWQEEMELYRQKVEPLRAELQEGARQKLHELQEKLSPLGEEMRDRARAHVDAFQKKWQEEMELYRQKVEPLRAELQEGARQKLHELQEKLSPLGEEMRDRARAHVDAFQKKWQEEMELYRQKVEPLRAELQEGARQKLHELQEKLSPLGEEMRDRARAHVDAFQKKWQEEMELYRQKVEPLRAELQEGARQKLHELQEKLSPLGEEMRDRARAHVDA |
